Laboratory results from PubChem BioAssay AID651550 (National Center for Advancing Translational Sciences (NCATS), 2012).
In all, about 360,000 compounds went through this assay and about 1,100 (0.31%) were called active. This list was built around the results that the source calls inconclusive (neither active nor inactive); the mix of calls is not that of the screen. No stated cut-off is given here; in the data, active means activity change below about -80%; inconclusive means mostly about -51% to -80%; inactive means weaker than that.
On the % scale 0 is the no-effect control and ±100 the full control effect.

Each compound was assayed against RAC-alpha serine/threonine-protein kinase (Homo sapiens) (UniProt P31749) (assay: HTS Assay for Inhibitors of Akt Phophorylation: Primary Screen). Details: Neuro2A IGF-stimulated pAkt S473 HTRF, 20 min; at 50 µM, hits give low values.
In short: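 Neuro2A cells in DMEM with 0.5% FBS, overnight at 37 deg C, given compound at single 50 µM final, then IGF (6 nM final) for 20 min at 37 deg C. Lysed; phospho-Akt Ser473 by HTRF after 24 h, 665/615 ratio.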
With `COc1ccc(CNC(=O)CN(Cc2ccccc2)S(=O)(=O)c2ccc(Cl)cc2)cc1` the activity change was inconclusive: -56.9%. `CCS(=O)(=O)N1CCC(C(=O)N2CCN(c3ccccc3)CC2)CC1` was tested, and the activity change was inconclusive: -79.4%. `C=CCc1cccc(/C=N/NC(=O)c2ccccc2OC)c1O` was tested, and the activity change was “inactive”. For `Cc1c(N=Cc2cccs2)c(=O)n(-c2ccccc2)n1C`, the activity change was inconclusive: -79.7%. For `COc1ccccc1-c1nc(-c2ccc(C)nc2OC)no1`, the activity change was active: -109%. `CCOc1cc2[nH]c(=S)n(CCCC(=O)NCc3ccco3)c(=O)c2cc1OCC` was tested, and the activity change was inconclusive: -52.6%. In the case of `O=C1C=C(c2ccc(CO)cc2)C[C@@H](c2ccc(F)cc2)C1`, the activity change is reported as “inactive”. With `CN(C)S(=O)(=O)c1ccc(C(=O)OCC(=O)NC(=O)NCc2ccccc2)cc1` the activity change was inconclusive: -62.8%. With `O=C(OCCOCCN=C1NS(=O)(=O)c2ccccc21)c1ccncc1` the activity change was active: -107%. In the case of `CCCCOC(=O)Nc1ccc(S(=O)(=O)Nc2nc(C)cc(C)n2)cc1`, the activity change is reported as inconclusive: -76.8%. With `CCC(C)NC(=O)c1ccccc1NC(=O)c1ccc(CSc2ccc(C)cc2)cc1` (stereo unspecified) the activity change was inconclusive: -76.9%. For `Cc1cc(C)n(-c2ccc(C(=O)Nc3nc4ccccc4s3)cc2)n1`, the activity change was inconclusive: -50.2%. For `CCN(CC)CCN1C(=O)Cn2c(C)c(C)c3cccc1c32`, the activity change was inconclusive: -77.8%. In the case of `COc1cc2cc(/C=C/C(=O)c3ccco3)c(Cl)nc2cc1OC`, the activity change is reported as inconclusive: -75.9%. `CCCCCCOC(=O)CCc1c(C)nc(N)[nH]c1=O` was tested, and the activity change was inactive: -13.8%. `CCCc1nc2ccccc2c(=O)n1NC(=O)c1c(O)c2cccc3c2n(c1=O)CCC3` was tested, and the activity change was inconclusive: -67.9%. For `CCC(C)(C)n1nnnc1C(c1ccc(OC)c(OC)c1)N1CCN(c2ccccc2)CC1` (stereo unspecified), the activity change was active: -105%. For `O=c1[nH]c(=S)[nH]cc1Oc1ccc(Cl)cc1Cl`, the activity change was “inactive”. For `Fc1ccc(C(c2ccc(F)cc2)N2CCN(C/C=C/c3ccccc3)CC2)cc1`, the activity change was “inactive”. With `COCCCn1c(-c2ccsc2)nc2c1c(=O)[nH]c(=O)n2Cc1ccccc1` the activity change was inconclusive: -55.6%. With `Cc1ccc2nc(NC(=O)CN(C)S(=O)(=O)c3cccc4nsnc34)sc2c1` the activity change was active: -101%. For `Cc1ccc(C)c(S(=O)(=O)N2CCNCC2)c1`, the activity change was “inactive”. In the case of `O=C(Cn1nnc(-c2ccccc2)n1)N=Nc1c(O)[nH]c2ccccc12`, the activity change is reported as active: -105%. For `CCc1ccc(S(=O)(=O)NC(=S)NC2CCCCC2)cc1`, the activity change was “inactive”. `CCOc1ccc2nc(SCC#N)c(C#N)cc2c1` was tested, and the activity change was inconclusive: -55.1%. `O=C(O)c1cc(N2C(=O)C3CC=CCC3C2=O)ccc1NCc1cccnc1` (stereo unspecified) was tested, and the activity change was active: -116%.
